Experimental data as given in article PMC8533070.
These are yes or no findings as the source states them, for the method shown. Some binding calls cover weakened binding; strength is not graded here. Sequences can lack the tags named with a protein.

Columns and labels:
Settings in all cases: remark: other sources report otherwise
[1] = biological target: T1, human NUP58 nucleoporin, full-length, fused with His6 tag (human), Q9BVL2; assay: SDS-PAGE of boiled and unboiled samples (SDS-resistant aggregates); purified NUP58 at 1 mg/mL in 5 mM potassium phosphate pH 5.8, 150 mM NaCl, 37 °C, slow rotation; 0 h against 96 h; Coomassie staining; both purified
T1 chain: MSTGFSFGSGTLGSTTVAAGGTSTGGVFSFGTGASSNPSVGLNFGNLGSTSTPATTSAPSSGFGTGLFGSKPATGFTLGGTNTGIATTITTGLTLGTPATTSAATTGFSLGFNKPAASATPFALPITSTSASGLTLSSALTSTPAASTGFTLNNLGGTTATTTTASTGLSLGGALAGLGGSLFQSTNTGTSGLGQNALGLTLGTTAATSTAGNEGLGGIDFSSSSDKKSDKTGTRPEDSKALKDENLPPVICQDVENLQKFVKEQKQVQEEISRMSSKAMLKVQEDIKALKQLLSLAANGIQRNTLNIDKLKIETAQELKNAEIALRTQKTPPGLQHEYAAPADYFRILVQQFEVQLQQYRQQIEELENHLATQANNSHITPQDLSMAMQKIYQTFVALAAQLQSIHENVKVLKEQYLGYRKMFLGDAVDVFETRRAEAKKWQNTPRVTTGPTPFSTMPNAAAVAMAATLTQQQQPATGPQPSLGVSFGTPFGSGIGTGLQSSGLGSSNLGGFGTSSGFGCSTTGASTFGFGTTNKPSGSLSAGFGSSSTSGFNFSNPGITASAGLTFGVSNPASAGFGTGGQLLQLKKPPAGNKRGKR

[2] = biological target: T1, human NUP58 nucleoporin, full-length, …; assay: SDD-AGE (semi-denaturing detergent agarose gel electrophoresis); purified NUP58 after incubation in non-denaturing conditions, 0 h against 96 h; 1.5-2% agarose; with or without 2% BME, boiled or unboiled; Western blot with anti-His antibody; both purified
[3] = biological target: T1, human NUP58 nucleoporin, full-length, …; assay: SDS-PAGE with additional gel boiling (aggregated and soluble fractions); purified NUP58 after incubation in non-denaturing conditions, 0 h against 96 h; Western blot with anti-His antibody; both purified

Measured: binding

B1: human NUP58 nucleoporin, full-length, fused with His6 tag, Q9BVL2-1 1-599 (protein)
chain: MSTGFSFGSGTLGSTTVAAGGTSTGGVFSFGTGASSNPSVGLNFGNLGSTSTPATTSAPSSGFGTGLFGSKPATGFTLGGTNTGIATTITTGLTLGTPATTSAATTGFSLGFNKPAASATPFALPITSTSASGLTLSSALTSTPAASTGFTLNNLGGTTATTTTASTGLSLGGALAGLGGSLFQSTNTGTSGLGQNALGLTLGTTAATSTAGNEGLGGIDFSSSSDKKSDKTGTRPEDSKALKDENLPPVICQDVENLQKFVKEQKQVQEEISRMSSKAMLKVQEDIKALKQLLSLAANGIQRNTLNIDKLKIETAQELKNAEIALRTQKTPPGLQHEYAAPADYFRILVQQFEVQLQQYRQQIEELENHLATQANNSHITPQDLSMAMQKIYQTFVALAAQLQSIHENVKVLKEQYLGYRKMFLGDAVDVFETRRAEAKKWQNTPRVTTGPTPFSTMPNAAAVAMAATLTQQQQPATGPQPSLGVSFGTPFGSGIGTGLQSSGLGSSNLGGFGTSSGFGCSTTGASTFGFGTTNKPSGSLSAGFGSSSTSGFNFSNPGITASAGLTFGVSNPASAGFGTGGQLLQLKKPPAGNKRGKR
binds: all assays above
